From publication doi:10.1101/2024.01.31.578330 come the findings set out here.

Amino acid sequences for entries named in this document (tags omitted).
UniProt Q95Q95: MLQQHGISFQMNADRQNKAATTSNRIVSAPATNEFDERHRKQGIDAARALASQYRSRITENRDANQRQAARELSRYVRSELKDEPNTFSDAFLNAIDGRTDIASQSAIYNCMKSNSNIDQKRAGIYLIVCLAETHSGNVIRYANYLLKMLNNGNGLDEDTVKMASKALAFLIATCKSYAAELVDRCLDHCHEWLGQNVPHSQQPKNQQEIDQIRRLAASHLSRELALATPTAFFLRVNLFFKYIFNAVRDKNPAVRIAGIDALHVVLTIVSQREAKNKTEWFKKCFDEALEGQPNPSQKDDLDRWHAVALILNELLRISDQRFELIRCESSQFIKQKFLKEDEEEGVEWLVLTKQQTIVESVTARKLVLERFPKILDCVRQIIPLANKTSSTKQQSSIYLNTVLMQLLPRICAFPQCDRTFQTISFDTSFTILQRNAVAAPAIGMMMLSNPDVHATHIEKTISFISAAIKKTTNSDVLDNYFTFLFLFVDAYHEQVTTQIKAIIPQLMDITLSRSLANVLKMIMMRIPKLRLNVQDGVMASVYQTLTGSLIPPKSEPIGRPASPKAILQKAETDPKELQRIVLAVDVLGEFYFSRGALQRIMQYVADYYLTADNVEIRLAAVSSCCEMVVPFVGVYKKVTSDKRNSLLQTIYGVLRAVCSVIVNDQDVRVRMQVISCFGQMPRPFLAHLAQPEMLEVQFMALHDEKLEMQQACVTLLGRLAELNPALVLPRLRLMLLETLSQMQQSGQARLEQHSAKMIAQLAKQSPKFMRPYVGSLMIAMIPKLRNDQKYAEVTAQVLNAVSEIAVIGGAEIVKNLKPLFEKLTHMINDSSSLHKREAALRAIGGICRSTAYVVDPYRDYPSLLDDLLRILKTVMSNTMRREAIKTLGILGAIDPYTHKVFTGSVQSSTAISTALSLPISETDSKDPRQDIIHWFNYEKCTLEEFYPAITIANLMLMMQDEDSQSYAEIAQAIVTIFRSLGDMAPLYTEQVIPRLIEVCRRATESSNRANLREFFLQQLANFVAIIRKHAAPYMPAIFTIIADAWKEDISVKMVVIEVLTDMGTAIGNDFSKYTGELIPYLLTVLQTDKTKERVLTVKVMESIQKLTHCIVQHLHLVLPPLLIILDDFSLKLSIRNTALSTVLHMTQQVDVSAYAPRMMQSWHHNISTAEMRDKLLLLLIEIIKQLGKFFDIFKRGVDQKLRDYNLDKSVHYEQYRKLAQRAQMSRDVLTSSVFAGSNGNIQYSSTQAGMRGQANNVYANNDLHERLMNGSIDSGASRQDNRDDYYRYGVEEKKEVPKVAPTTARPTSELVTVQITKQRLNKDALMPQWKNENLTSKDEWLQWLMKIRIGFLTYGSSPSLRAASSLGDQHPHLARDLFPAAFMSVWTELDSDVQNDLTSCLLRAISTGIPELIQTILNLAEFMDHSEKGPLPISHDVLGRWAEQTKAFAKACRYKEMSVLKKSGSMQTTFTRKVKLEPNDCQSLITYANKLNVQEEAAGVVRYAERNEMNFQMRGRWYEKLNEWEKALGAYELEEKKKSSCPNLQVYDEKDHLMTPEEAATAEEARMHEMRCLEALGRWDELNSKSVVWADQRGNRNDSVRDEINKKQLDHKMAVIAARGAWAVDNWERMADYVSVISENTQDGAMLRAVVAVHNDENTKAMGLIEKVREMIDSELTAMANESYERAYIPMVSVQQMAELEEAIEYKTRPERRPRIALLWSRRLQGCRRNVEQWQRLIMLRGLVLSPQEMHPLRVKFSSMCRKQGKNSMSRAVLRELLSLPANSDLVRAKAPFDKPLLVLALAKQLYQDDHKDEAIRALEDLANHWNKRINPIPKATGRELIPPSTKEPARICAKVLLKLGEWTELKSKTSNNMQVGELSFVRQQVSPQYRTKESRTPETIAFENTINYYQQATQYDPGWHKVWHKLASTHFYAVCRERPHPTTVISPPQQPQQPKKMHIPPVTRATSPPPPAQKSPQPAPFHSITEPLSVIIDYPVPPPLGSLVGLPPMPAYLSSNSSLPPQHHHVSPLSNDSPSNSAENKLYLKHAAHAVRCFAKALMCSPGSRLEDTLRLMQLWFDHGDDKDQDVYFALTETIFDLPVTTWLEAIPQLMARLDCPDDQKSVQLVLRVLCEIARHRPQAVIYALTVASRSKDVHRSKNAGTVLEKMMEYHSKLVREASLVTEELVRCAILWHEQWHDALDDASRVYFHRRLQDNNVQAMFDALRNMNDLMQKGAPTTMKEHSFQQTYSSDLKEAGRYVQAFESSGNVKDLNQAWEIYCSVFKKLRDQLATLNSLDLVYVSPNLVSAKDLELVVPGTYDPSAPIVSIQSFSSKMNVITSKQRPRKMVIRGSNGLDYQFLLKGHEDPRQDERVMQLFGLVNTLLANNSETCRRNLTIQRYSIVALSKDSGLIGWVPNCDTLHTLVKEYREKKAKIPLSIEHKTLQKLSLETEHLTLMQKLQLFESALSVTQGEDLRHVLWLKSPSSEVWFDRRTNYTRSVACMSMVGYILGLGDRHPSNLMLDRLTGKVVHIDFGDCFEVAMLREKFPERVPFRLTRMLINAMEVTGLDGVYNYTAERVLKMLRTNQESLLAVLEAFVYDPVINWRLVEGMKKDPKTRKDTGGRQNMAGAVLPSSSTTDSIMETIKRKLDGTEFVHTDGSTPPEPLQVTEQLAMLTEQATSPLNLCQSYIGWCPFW

These are yes or no findings as the source states them, for the method shown. In cells and extracts the contact can be indirect. These calls come from enrichment with a bait or labelling near it, and not all partners need be listed. Tags and fused reporters may be left off the sequences shown.

The target in this experiment is T1, GFP::PAR-5 (C. elegans) (UniProt P41932).
T1 sequence: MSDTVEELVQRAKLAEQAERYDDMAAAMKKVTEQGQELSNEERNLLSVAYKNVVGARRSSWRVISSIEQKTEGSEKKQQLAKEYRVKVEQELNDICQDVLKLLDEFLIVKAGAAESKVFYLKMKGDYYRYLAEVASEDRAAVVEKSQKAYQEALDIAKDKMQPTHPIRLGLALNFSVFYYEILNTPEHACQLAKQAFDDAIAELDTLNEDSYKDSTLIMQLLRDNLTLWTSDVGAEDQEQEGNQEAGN
Briefly: affinity purification with mass spectrometry.

For the substance “RICT-1 (C. elegans (endogenous in worms))”, the binding result is reported as “binds”.

On to LET-363 (from UniProt Q95Q95 1-2697), for which the binding result was “binds”.
